In US20230019236A1, “PROTEIN TYROSINE PHOSPHATASE INHIBITORS AND METHODS OF USE THEREOF” (Calico Life Sciences LLC, priority 2019, published 2023):
The structures given here were assigned with low confidence; some may be wrong.

Protein sequences, listed by entry. Tags and fused reporters are not part of them. Chains listed by the source or under a name are the forms on record and can include a tag or linker. Residues count along the entry.
UniProt P17706, 1-387 with tags or gaps isoform 2: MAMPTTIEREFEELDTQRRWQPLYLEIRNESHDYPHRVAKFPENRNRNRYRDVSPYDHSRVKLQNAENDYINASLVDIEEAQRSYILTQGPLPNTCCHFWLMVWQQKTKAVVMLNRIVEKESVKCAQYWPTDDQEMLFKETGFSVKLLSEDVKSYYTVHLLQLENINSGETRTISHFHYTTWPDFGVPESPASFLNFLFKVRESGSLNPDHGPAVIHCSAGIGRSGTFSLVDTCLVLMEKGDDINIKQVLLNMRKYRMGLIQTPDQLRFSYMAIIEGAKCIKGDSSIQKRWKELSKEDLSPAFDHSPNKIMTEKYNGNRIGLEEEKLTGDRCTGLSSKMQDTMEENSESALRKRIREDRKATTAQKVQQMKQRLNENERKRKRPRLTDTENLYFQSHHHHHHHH
UniProt P18031, 1-321 with tags or gaps: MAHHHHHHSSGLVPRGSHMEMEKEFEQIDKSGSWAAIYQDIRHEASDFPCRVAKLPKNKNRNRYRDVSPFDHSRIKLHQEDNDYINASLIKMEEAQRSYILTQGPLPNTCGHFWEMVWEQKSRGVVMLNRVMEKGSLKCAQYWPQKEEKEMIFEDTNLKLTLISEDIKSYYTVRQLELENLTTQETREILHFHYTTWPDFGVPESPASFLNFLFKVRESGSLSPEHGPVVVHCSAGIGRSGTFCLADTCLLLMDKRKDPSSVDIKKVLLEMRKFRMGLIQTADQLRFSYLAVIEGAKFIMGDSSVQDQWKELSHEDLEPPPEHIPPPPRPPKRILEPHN

Legend:
[1] = target: His tagged PTPN2 (TC45) protein (Homo sapiens, UniProt P17706); experiment: Mobility Shift Assay used to determine potency of PTPN2 inhibitors; settings: read-out: PTPN2 MSA IC50; Table 2
[2] = target: His tagged full-length PTP1B protein (Homo sapiens, UniProt P18031); experiment: Mobility Shift Assay (MSA) used to determine potency of PTP1B inhibitors; type: biochemical; settings: read-out: PTP1B MSA IC50; Table 2

`CC1(CCOc2ccc3cc(O)c(N4CC(=O)NS4(=O)=O)c(F)c3c2)COC(C)(C)O1` (centres unmarked) was tested, and the IC50 [1] was less than 1 nM and the IC50 [2] was 1 to 10 nM.
